Assay results from US20130018039A1, “IMIDAZOLYL-IMIDAZOLES AS KINASE INHIBITORS” (priority 2010, published 2013).
Some results were stated once for a whole list of compounds, not compound by compound.

Chains of the proteins cited; added tags and fusions are not shown.
UniProt O43353, whole entry: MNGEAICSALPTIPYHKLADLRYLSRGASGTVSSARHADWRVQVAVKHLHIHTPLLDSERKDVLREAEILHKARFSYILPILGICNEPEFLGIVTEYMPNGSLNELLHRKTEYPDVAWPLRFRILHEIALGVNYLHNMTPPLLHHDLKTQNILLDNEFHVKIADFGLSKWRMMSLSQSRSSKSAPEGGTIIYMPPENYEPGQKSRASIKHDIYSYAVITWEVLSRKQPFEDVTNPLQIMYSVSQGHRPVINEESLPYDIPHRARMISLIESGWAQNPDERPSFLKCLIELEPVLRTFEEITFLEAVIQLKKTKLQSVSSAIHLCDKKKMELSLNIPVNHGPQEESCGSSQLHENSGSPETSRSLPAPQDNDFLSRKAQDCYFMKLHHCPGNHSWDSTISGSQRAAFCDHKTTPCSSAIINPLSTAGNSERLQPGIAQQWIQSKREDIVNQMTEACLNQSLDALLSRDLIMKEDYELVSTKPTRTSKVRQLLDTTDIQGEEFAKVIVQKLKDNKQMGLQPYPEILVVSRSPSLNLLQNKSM

Biological target: T1, RIPK2 (full length FLAG His tagged RIPK2; RIP2 kinase) (Homo sapiens, UniProt O43353)
T1 construct: Full length FLAG His tagged RIPK2 was purified from a Baculovirus expression system; FLAG (N); 6His (N); made in house; host or cells: Spodoptera frugiperda (Sf9) insect cells, baculovirus
Experiment: Fluorescent polarization based binding assay, competition with a fluorescently labeled ATP competitive ligand at the ATP binding pocket of RIPK2
Conditions: pIC50s averaged, minimum of 2 experiments; fluorescent ligand 5 nM
Description: A fluorescent polarization based binding assay was developed to quantitate interaction of novel test compounds at the ATP binding pocket of RIPK2, by competition with a fluorescently labeled ATP competitive ligand. Full length FLAG His tagged RIPK2 was purified from a Baculovirus expression system and was used at a final assay concentration of twice the KDapparent. A fluorescent labeled ligand (5-({[2-({[3-({4-[(5-hydroxy-2-methylphenyl)amino]-2-pyrimidinyl}amino)phenyl]carbonyl}amino)ethyl]amino}carbonyl)-2-(6-hydroxy-3-oxo-3H-xanthen-9-yl)benzoic acid, prepared as described below) was used at a final assay concentration of 5 nM. Both the enzyme and ligand were prepared in solutions in 50 mM HEPES pH7.5, 150 mM NaCl, 10 mM MgCl2, 1 mM DTT, and 1 mM CHAPS. Test compounds were prepared in 100% DMSO and […] was dispensed to individual wells of a multiwell plate. Next, 5 ul RIPK2 was added to the test compounds at twice the final assay concentration, and incubated at room temperature for 10 minutes. Following the incubation, 5 ul of the fluorescent labeled ligand solution, was added to each reaction, at twice the final assay concentration, and incubated at room temperature for at least 10 minutes. Finally, samples were read on an instrument capable of measuring fluorescent polarization. Test compound inhibition was expressed as percent (%) inhibition of internal assay controls.
For concentration response experiments, normalized data were fit and pIC50s determined using conventional techniques. For example, the following four parameter logistic equation may be used: y=A+((B−C))/(1+(10^x)/(10^C)^D), where: y is the % activity (% inhibition) at a specified compound concentration; A is the minimum % activity; B is the maximum % activity; C=log10(IC50); D=Hill slope; x=log10 (compound concentration [M]); and plC50=(—C).
The pIC50s are averaged to determine a mean value, for a minimum of 2 experiments. […] For instance, the compounds of Example 2 and Example 39 each inhibited RIP2 kinase in the above method with a mean plC50 of 5.
Full-length human RIPK2 (receptor-interacting serine-threonine kinase 2) cDNA was purchased from Invitrogen (Carlsbad, Calif., USA, Clone ID: IOH6368, RIPK2-pENTR 221). Gateway® LR cloning was used to site-specifically recombine RIPK2 downstream to an N-terminal FLAG-6His contained within the destination vector pDEST8-FLAG-His6 according to the protocol described by Invitrogen. Transfection into Spodoptera frugiperda(Sf9) insect cells was performed using Cellfectin® (Invitrogen), according to the manufacturer's protocol.

Row | SMILES | mean pIC50
1 | COCCn1c(-c2c[nH]c(-c3ccc(Cl)cc3)n2)nc2cc(C(=O)NCCN3CCOCC3)ccc21 [Example 1, 2-[2-(4-chlorophenyl)-1H-imidazol-4-yl]-1-[2-(methyloxy)ethyl]-N-[2-(4-morpholinyl)ethyl]-1H-benzimidazole-5-carboxamide] | greater than 4.0
2 | CNC(=O)c1ccc2c(c1)nc(-c1c[nH]c(-c3ccc(Cl)cc3)n1)n2Cc1ccccn1 [Example 2, 2-[2-(4-chlorophenyl)-1H-imidazol-4-yl]-N-methyl-1-(2-pyridinylmethyl)-1H-benzimidazole-5-carboxamide] | greater than 4.0
3 | CNC(=O)c1ccc2c(c1)nc(-c1c[nH]c(-c3ccc(Cl)cc3)n1)n2CC1CCCO1 (centres unmarked) [Example 3, 2-[2-(4-chlorophenyl)-1H-imidazol-4-yl]-N-methyl-1-(tetrahydro-2-furanylmethyl)-1H-benzimidazole-5-carboxamide] | greater than 4.0
4 | CNC(=O)c1ccc2c(c1)nc(-c1c[nH]c(-c3ccc(Cl)cc3)n1)n2C1CCOC1 (centres unmarked) [Example 4, 2-[2-(4-chlorophenyl)-1H-imidazol-4-yl]-N-methyl-1-(tetrahydro-3-furanyl)-1H-benzimidazole-5-carboxamide] | greater than 4.0
5 | CNC(=O)c1ccc2c(c1)nc(-c1c[nH]c(-c3ccc(Cl)cc3)n1)n2CCc1ccccn1 [Example 5, 2-[2-(4-chlorophenyl)-1H-imidazol-4-yl]-N-methyl-1-[2-(2-pyridinyl)ethyl]-1H-benzimidazole-5-carboxamide] | greater than 4.0
6 | CNC(=O)c1ccc2c(c1)nc(-c1c[nH]c(-c3cc(OC)ccc3F)n1)n2CCOC [Example 6, 2-{2-[2-fluoro-5-(methyloxy)phenyl]-1H-imidazol-4-yl}-N-methyl-1-[2-(methyloxy)ethyl]-1H-benzimidazole-5-carboxamide] | greater than 4.0
7 | CNC(=O)c1ccc2c(c1)nc(-c1c[nH]c(-c3cccc(OC)c3)n1)n2CCOC [Example 7, N-methyl-1-[2-(methyloxy)ethyl]-2-{2-[3-(methyloxy)phenyl]-1H-imidazol-4-yl}-1H-benzimidazole-5-carboxamide] | greater than 4.0
8 | CNC(=O)c1ccc2c(c1)nc(-c1c[nH]c(-c3cc(OC)ccc3OC)n1)n2CCOC [Example 8, 2-{2-[2,5-bis(methyloxy)phenyl]-1H-imidazol-4-yl}-N-methyl-1-[2-(methyloxy)ethyl]-1H-benzimidazole-5-carboxamide] | greater than 4.0
9 | CNC(=O)c1ccc2c(c1)nc(-c1c[nH]c(-c3ccccc3OC)n1)n2CCOC [Example 9, N-methyl-1-[2-(methyloxy)ethyl]-2-{2-[2-(methyloxy)phenyl]-1H-imidazol-4-yl}-1H-benzimidazole-5-carboxamide] | greater than 4.0
10 | CNC(=O)c1ccc2c(c1)nc(-c1c[nH]c(-c3ccc(OC)cc3)n1)n2CCOC [Example 10, N-methyl-1-[2-(methyloxy)ethyl]-2-{2-[4-(methyloxy)phenyl]-1H-imidazol-4-yl}-1H-benzimidazole-5-carboxamide] | greater than 4.0
11 | COCCn1c(-c2c[nH]c(-c3ccc(Cl)c(OC)c3)n2)nc2cc(C(=O)N(C)C)ccc21 [Example 11, 2-{2-[4-chloro-3-(methyloxy)phenyl]-1H-imidazol-4-yl}-N,N-dimethyl-1-[2-(methyloxy)ethyl]-1H-benzimidazole-5-carboxamide] | greater than 4.0
12 | COCCn1c(-c2c[nH]c(-c3ccc(Cl)c(O)c3)n2)nc2cc(C(=O)N(C)C)ccc21 [Example 12, 2-[2-(4-chloro-3-hydroxyphenyl)-1H-imidazol-4-yl]-N,N-dimethyl-1-[2-(methyloxy)ethyl]-1H-benzimidazole-5-carboxamide] | greater than 4.0
13 | CNC(=O)c1ccc2c(c1)nc(-c1c[nH]c(-c3ccc4scnc4c3)n1)n2CCOC.Cl [Example 13, 2-[2-(1,3-benzothiazol-5-yl)-1H-imidazol-4-yl]-N-methyl-1-[2-(methyloxy)ethyl]-1H-benzimidazole-5-carboxamide] | greater than 4.0
14 | CNC(=O)c1ccc2c(c1)nc(-c1c[nH]c(-c3ccc(Cl)c(OC)c3)n1)n2CCOC.Cl [Example 14, 2-{2-[4-chloro-3-(methyloxy)phenyl]-1H-imidazol-4-yl}-N-methyl-1-[2-(methyloxy)ethyl]-1H-benzimidazole-5-carboxamide] | greater than 4.0
15 | CNC(=O)c1ccc2c(c1)nc(-c1c[nH]c(-c3ccc(S(C)(=O)=O)cc3)n1)n2CCOC.Cl [Example 15, N-methyl-1-[2-(methyloxy)ethyl]-2-{2-[4-(methylsulfonyl)phenyl]-1H-imidazol-4-yl}-1H-benzimidazole-5-carboxamide] | greater than 4.0
16 | CNC(=O)c1ccc2c(c1)nc(-c1c[nH]c(-c3ccc(S(N)(=O)=O)cc3)n1)n2CCOC.Cl [Example 16, 2-{2-[4-(aminosulfonyl)phenyl]-1H-imidazol-4-yl}-N-methyl-1-[2-(methyloxy)ethyl]-1H-benzimidazole-5-carboxamide] | greater than 4.0
17 | CNC(=O)c1ccc2c(c1)nc(-c1c[nH]c(-c3ccc4[nH]ccc4c3)n1)n2CCOC [Example 17, 2-[2-(1H-indol-5-yl)-1H-imidazol-4-yl]-N-methyl-1-[2-(methyloxy)ethyl]-1H-benzimidazole-5-carboxamide] | greater than 4.0
18 | CNC(=O)c1ccc2c(c1)nc(-c1c[nH]c(-c3ccc4cc[nH]c4c3)n1)n2CCOC [Example 18, 2-[2-(1H-indol-6-yl)-1H-imidazol-4-yl]-N-methyl-1-[2-(methyloxy)ethyl]-1H-benzimidazole-5-carboxamide] | greater than 4.0
19 | CNC(=O)c1ccc2c(c1)nc(-c1c[nH]c(-c3cccc(S(N)(=O)=O)c3)n1)n2CCOC.Cl [Example 19, 2-{2-[3-(aminosulfonyl)phenyl]-1H-imidazol-4-yl}-N-methyl-1-[2-(methyloxy)ethyl]-1H-benzimidazole-5-carboxamide] | greater than 4.0
20 | CNC(=O)c1ccc2c(c1)nc(-c1c[nH]c(-c3cccc(C(N)=O)c3)n1)n2CCOC.Cl [Example 20, 2-{2-[3-(aminocarbonyl)phenyl]-1H-imidazol-4-yl}-N-methyl-1-[2-(methyloxy)ethyl]-1H-benzimidazole-5-carboxamide] | greater than 4.0
21 | CNC(=O)c1ccc2c(c1)nc(-c1c[nH]c(-c3ccc4[nH]ncc4c3)n1)n2CCOC [Example 21, 2-[2-(1H-indazol-5-yl)-1H-imidazol-4-yl]-N-methyl-1-[2-(methyloxy)ethyl]-1H-benzimidazole-5-carboxamide] | greater than 4.0
22 | CNC(=O)c1ccc2c(c1)nc(-c1c[nH]c(-c3ccc4cn[nH]c4c3)n1)n2CCOC [Example 22, 2-[2-(1H-indazol-6-yl)-1H-imidazol-4-yl]-N-methyl-1-[2-(methyloxy)ethyl]-1H-benzimidazole-5-carboxamide] | greater than 4.0
23 | CNC(=O)c1ccc2c(c1)nc(-c1c[nH]c(-c3ccc4nonc4c3)n1)n2CCOC.Cl [Example 23, 2-[2-(2,1,3-benzoxadiazol-5-yl)-1H-imidazol-4-yl]-N-methyl-1-[2-(methyloxy)ethyl]-1H-benzimidazole-5-carboxamide] | greater than 4.0
24 | COCCn1c(-c2c[nH]c(-c3ccc4nonc4c3)n2)nc2cc(C(=O)N(C)C)ccc21 [Example 24, 2-[2-(2,1,3-benzoxadiazol-5-yl)-1H-imidazol-4-yl]-N,N-dimethyl-1-[2-(methyloxy)ethyl]-1H-benzimidazole-5-carboxamide] | greater than 4.0
25 | COCCn1c(-c2c[nH]c(-c3ccc4scnc4c3)n2)nc2cc(C(=O)N(C)C)ccc21 [Example 25, 2-[2-(1,3-benzothiazol-5-yl)-1H-imidazol-4-yl]-N,N-dimethyl-1-[2-(methyloxy)ethyl]-1H-benzimidazole-5-carboxamide] | greater than 4.0
26 | COCCn1c(-c2c[nH]c(-c3ccc4nonc4c3)n2)nc2ccc(C)cc21.Cl [Example 26, 5-(4-{6-methyl-1-[2-(methyloxy)ethyl]-1H-benzimidazol-2-yl}-1H-imidazol-2-yl)-2,1,3-benzoxadiazole] | greater than 4.0
